US9719127B2, “Dual inducible vectors and cell lines” (priority 2012, dated 2017)
Some of these results come from one statement about several compounds together.

System: X4 and R5 viruses
Format: cell-based, HIV
Settings: maximally induced GGR Affinofile cells, FIG. 30(B)

Maraviroc
infection specifically inhibited when the matching coreceptor inhibitor is used: > 90
